The list shows a part of the results. Further columns of the screen follow, without active or inactive calls. Compounds called inactive in the main read-out are mostly missing here.

Consider 101 molecules from PubChem BioAssay AID463116 (University of Pittsburgh Molecular Library Screening Center, 2010).

This assay is described as follows: dynein cargo transport inhibitors, GR-EGFP translocation, confirmation, imaging, high-content imaging, GR-EGFP cells (AID 463116). The settings on record: 3617.4 GR-EGFP nuclear translocation imaging, dexamethasone-induced; measured here: cell count per field; at 20 µM.
As for `CCCN1C(=O)/C(=C/C=C2\N(CC)c3ccccc3C2(C)C)SC1=S`, the z-score is 0.286. In the case of `O=S1(=O)CC=C(CSC(=S)NC2CCS(=O)(=O)C2)C1` (stereo unspecified) it was -0.307. The value for `CN(Cc1ccc(Cl)cc1)C(=O)CCl` was -0.356.

`Cc1cc(-c2cccs2)c2c(N)c(C(=O)c3ccc4c(c3)OCO4)sc2n1` showed a z-score of 0.122. In the case of `CCOc1ccc(C(=O)C(CCC(CN(C)C)C(=O)c2ccc(OCC)cc2)CN(C)C)cc1` (stereo unspecified) it was -3.8.

`Cc1ccc(N2C(=O)CC(Sc3ncn[nH]3)C2=O)cc1C` (stereo unspecified): the z-score amounted to 0.574. Consider `CCC1Oc2ccc(C)cc2N(CC(=O)N(Cc2cccnc2)Cc2ccc(C)o2)C1=O` (stereo unspecified), for which the z-score stood at 0.331. `CC(=O)N(CCC(c1ccco1)C(C)C)Cc1ccc(Cl)cc1` (stereo unspecified) yielded a z-score of -0.041.

In turn, `Cn1c(-c2ccccc2)c(C(=O)CCl)c2ccccc21` showed a z-score of -0.434. In the case of `CCN1C/C(=C/c2cccc([N+](=O)[O-])c2)C(=O)/C(=C/c2cccc([N+](=O)[O-])c2)C1` it was 0.403; in that of `Cc1ccc(C)c2nc3sc(C(=O)N4CCCc5ccccc54)c(N)c3cc12`, -0.226; in that of `COCCCNc1c2c3c(cccc3[nH]c1=O)C(=O)c1ccccc1-2`, 0.934.

The molecule `CN1C(=O)C(O)(CC(=O)/C=C\c2ccc3c(c2)OCO3)c2ccccc21` (stereo unspecified) gave a z-score of -0.0746. The molecule `NC(=O)N/N=C/c1c(Sc2nnnn2-c2ccccc2)nc2ccccn2c1=O` gave a z-score of 0.489. The value for `Cc1ccc(S(=O)(=O)/N=c2\ccc(Cl)cn2C(F)F)cc1` was 0.00269; that for `COCCN(CC(=O)NC1CCCCC1)C(=O)/C=C/C(=O)c1ccc(OC)cc1O` was 0.206. The value for `O=C(N/N=C/c1ccc(N2CCCCC2)o1)c1ccccc1` was -0.409; that for `CCC(C)(C)c1ccc(OCCCC[n+]2cccc(C)c2)c(C(C)(C)CC)c1` was -6.32; that for `Cc1ccc(-n2ncc(Br)c(Br)c2=O)cc1` was 0.194. With `O=C1C(Cl)=C(NS(=O)(=O)c2ccc([N+](=O)[O-])cc2)C(=O)c2ccccc21`, the z-score is 0.395.

In turn, `O=C(Cn1sc2ccccc2c1=O)NC12CC3CC(CC(C3)C1)C2` came in with a z-score of 0.766. In the case of `O=C(c1ccc(F)cc1)C(CN1CCOCC1)c1ccccc1` (stereo unspecified) it was 0.148; in that of `CCc1ccc(NS(=O)(=O)c2cccs2)cc1`, -0.425; in that of `CC1=NNC(=O)/C1=C\c1cn(-c2ccccc2)nc1-c1ccccc1`, -0.882. Molecule `O=C(Cn1ncc(Cl)c(Cl)c1=O)N1CCOCC1` came in with a z-score of 0.193.

Turning to `CCCC(=O)N(C1CC(C)C(C#N)(C#N)C1(C#N)C#N)N(C)C` (stereo unspecified), the z-score was -3.96. In the case of `C=C(C(=O)c1ccccc1)C(C(=C)C(=O)c1ccccc1)c1ccc(OC)cc1` it was -0.299; in that of `CC1=C(CO)C(=O)OC([C@@H](C)C2CC[C@H]3C4C[C@H]5O[C@]56[C@@H](O)C=CC(=O)[C@]6(C)C4CC[C@]23C)C1` (stereo partly specified), 0.168; in that of `Cc1cccc(N2CCN(C(=O)Cn3sc4nc(C)cc(C)c4c3=O)CC2C)c1` (stereo unspecified), -0.611.

For the molecule `CN(C)CCCN(C(=O)CCOc1ccccc1)c1nc2ccc(F)cc2s1`, the z-score stood at 0.263. Molecule `CN1CCN(Cc2nc3ccccc3c(=O)n2Cc2nc(-c3ccc([N+](=O)[O-])cc3)cs2)CC1` gave a z-score of -3.51. In turn, `COc1ccc(/C=C/C(=O)CC(O)(c2ccccc2)C(F)(F)F)cc1` (stereo unspecified) registered a z-score of 0.57. The value for `O=C1CC(Sc2nnc(-c3ccccc3O)o2)C(=O)N1c1ccccc1` (stereo unspecified) was -1.75. In the case of `CC1=NN(c2ccccc2)C(=O)/C1=C\C=C\c1ccccc1` it was -0.0965; in that of `O=C(OCn1ncc(Br)c(Br)c1=O)c1c(F)cccc1F`, 0.332. The value for `Cc1ccc(S(=O)(=O)/N=C(\Sc2ccccc2)c2ccccc2)cc1` was 0.594. `CC(C)(c1ccccc1)c1ccc(OCC(O)CNC2CCN(Cc3ccccc3)CC2)cc1` (stereo unspecified) had a z-score of -5.44. The value for `COc1ccc(NC(=O)/C(Cl)=C(/Cl)S(=O)(=O)Cc2ccc(C)cc2)cn1` was -2.42; that for `COc1cc(/C=C(/C(=O)c2cccs2)c2nc3ccccc3[nH]2)ccc1O` was 0.396.

Molecule `CC1=CC(=O)C(C(C)C)=C/C1=N/OS(=O)(=O)c1ccccc1` displayed a z-score of -5.34. `CC(=O)N1c2ccccc2C(CBr)=CC1(C)C` came in with a z-score of 0.751.

Regarding `CC(C)c1ccc(CN2CCN(C(=O)CCl)CC2)cc1`, the z-score was found to be 0.331.

The molecule `Cc1ccc(S(=O)(=O)Nc2ccc3c(c2)nc2n3CCN(Cc3ccccc3)C2)cc1` returned a z-score of 0.636. In the case of `N#Cc1ccccc1Cn1cc(/C=C/[N+](=O)[O-])c2ccccc21` it was -0.000683; in that of `COC(CNC(=O)c1ccc2c3c(onc13)-c1ccccc1C2=O)OC`, -0.834; in that of `CCOc1cc(/C=C\[N+](=O)[O-])ccc1OCC(=O)N1CCOCC1`, 0.132. The value for `CC(=O)Nc1ccc(SC[C@H](c2ccccc2)N2CCN(CCc3ccccc3)CCC2=O)cc1` was -0.166. The molecule `CCOC(=O)C1=C(CSc2nc(-c3ccncc3)ccc2C#N)OC(N)=C(C#N)C1c1ccc(OC)cc1` (stereo unspecified) yielded a z-score of 0.738. The value for `CCCCCCC(=O)N(O)C1CC(=O)N(c2ccc(F)cc2)C1=O` (stereo unspecified) was 0.306; that for `N=c1n(CCN2CCCCC2)c2ccccc2n1CC(=O)c1ccc(Cl)c(Cl)c1` was -4.67; that for `CCOC(=O)c1ccc(N=c2sc(C(=O)OC)cc(=O)n2Cc2ccco2)cc1` was 0.192. The value for `O=C(/C=C/c1cccs1)c1cc(Cl)ccc1OC(=O)N1CCOCC1` was 0.143; that for `O=C(/C=C/c1ccc(N2CCCCC2)c([N+](=O)[O-])c1)c1ccc(O)cc1` was 0.82; that for `Cc1cc2c(cc1C)NC(CC(=O)NCc1ccccc1)C(=O)N2` (stereo unspecified) was -0.0446. In the case of `CCC(=O)Nc1cccc(C(=O)/C=C/c2ccc(F)cc2)c1` it was -0.912; in that of `NC(=O)c1ccc(NC(=O)CSC2=Nc3ccccc3C3CC=NN23)cc1` (stereo unspecified), 0.689; in that of `CCC(=O)Nc1ccc(/C=C(\C(C)=O)C(=O)c2ccccc2)cc1`, -0.0871. In turn, `COc1ccc(/C=C/C(=O)c2cc(Br)ccc2OC(=O)c2ccco2)cc1OC` displayed a z-score of 0.327. In the case of `CCc1cccc2cc3c(N)c(C(=O)Nc4ccc(S(=O)(=O)N5CCCC5)cc4)sc3nc12`, the z-score was 0.196.

The molecule `CCCN(CCC)S(=O)(=O)c1ccc(Cl)c([N+](=O)[O-])c1` came in with a z-score of -0.0346.

In turn, `COc1ccc(C2C(C#N)=C(N)Oc3c2sc2nc(C)cc(C)c32)cc1` (stereo unspecified) displayed a z-score of -0.0627. In turn, `Cc1ccnc(N/C=C(\C#N)c2nc(-c3cccc(Br)c3)cs2)c1` had a z-score of 0.529. `Cc1cc(C)n(-c2nc(NCCN(C)C)c3c4c(sc3n2)CCCC4)n1` had a z-score of -6.37. Molecule `CS(=O)(=O)c1cc([N+](=O)[O-])c(Sc2nc3ccccc3[nH]2)c([N+](=O)[O-])c1` showed a z-score of 0.408. `O=C(/C=C/c1cccc([N+](=O)[O-])c1)n1cnc2ccccc21` had a z-score of 0.319. In the case of `O=C(/C=C/c1cc(Br)ccc1O)c1ccco1` it was -0.774. The value for `CC(C)N(CC(=O)Nc1ccc(Cl)cc1C(F)(F)F)C(=O)CCl` was -0.0726. `CNC(=O)COC(=O)c1ccccc1C(=O)c1ccc(Cl)c([N+](=O)[O-])c1` displayed a z-score of -0.784. In the case of `O=S(=O)(CCSc1nc2ccccc2o1)c1nc2ccccc2s1`, the z-score is -0.0152. In the case of `O=[N+]([O-])c1ccc(N2CCN(c3ccc(Cl)nn3)CC2)cc1NC1CC1` it was 0.512.

`CN(C)CC(C(=O)c1ccccc1)c1ccccc1` (stereo unspecified) had a z-score of -0.446. Turning to `COC(=O)c1cc(=O)n(Cc2cccs2)c(=Nc2ccccc2)s1`, the z-score is 0.42. For the molecule `COc1ccc(-c2cc(C(F)(F)F)nc(S(=O)(=O)CCCC(=O)Nc3cccc(O)c3)n2)cc1OC`, the z-score came to 0.333. In the case of `Cc1ccc(/C=C2/C(=O)ON=C2c2ccccc2)o1` it was 0.253; in that of `Nc1c(C(=O)c2ccc(Cl)cc2)sc2nsc(SCCN3CCOCC3)c12`, -0.365. In the case of `O=C1C=CC(O)(c2cc(=O)c3c(O)cc(O)cc3o2)C=C1` it was 0.000739; in that of `COc1ccc(C(C(=O)NC2CCCCC2)N(C(=O)CCl)c2cccc(Cl)c2)cc1` (stereo unspecified), 0.651. Turning to `N#Cc1cccc(NC(=O)CSc2ccc3c4c(cccc24)C(=O)c2ccccc2-3)c1`, the z-score was determined as 0.279.

Regarding `CCOC(=O)c1c(-c2ccccc2)csc1NC(=O)/C(C#N)=C/c1ccc(O)c(OC)c1`, the z-score is -0.508. In turn, `O=[N+]([O-])c1ccc(-c2ccc(/C=N/Nc3nc(N4CCCCC4)nc(N4CCCCC4)n3)o2)cc1` displayed a z-score of 0.11. The value for `COc1cc(OC)c2c(O)c3c(c(-c4c5c(c(O)c6c(OC)cc(OC)cc46)CO[C@@H](C)[C@H]5O)c2c1)[C@H](O)[C@H](C)OC3` was 0.48. On to `N#C/C(=C\c1cccc([N+](=O)[O-])c1)C(=O)NCc1ccc(Cl)cc1`, for which the z-score worked out at 0.893. In the case of `O=C(NCc1cccnc1)/C(=C\c1ccc(-c2cccc(Cl)c2)o1)S(=O)(=O)c1ccccc1`, the z-score is 0.247. `CC(=O)N1/C(=C/c2ccc(N(C)C)cc2)C(=O)c2ccccc21`: the z-score is -0.792.

With `CC(=O)Nc1sc(/C(C#N)=C/c2ccc(Cl)c(Cl)c2)nc1-c1ccc(C)cc1`, the z-score is -0.136. As for `C=C1C(=O)[C@@]23[C@H](O)C[C@@H]4C(C)(C)CC[C@H](O)[C@]4(C)[C@@H]2C[C@H](O)[C@@H]1[C@H]3O`, the z-score worked out at 0.508. In the case of `COc1ccc(N2C(=O)CC(Sc3nnnn3-c3ccc(F)cc3)C2=O)cc1` (stereo unspecified) it was -0.023.

The molecule `Cc1nnc(NC(=O)c2sc3nc(-c4cccs4)cc(C(F)(F)F)c3c2N)s1` gave a z-score of 0.228.

Molecule `O=C(CCN1Cc2ccccc2C1)c1ccc2c(c1)OCCO2` gave a z-score of 0.0743. On to `O=C(CCl)Nc1cccc(Oc2ccccc2)c1`, for which the z-score came to 0.223. In turn, `N#Cc1cc(-c2ccccc2)nc(Oc2ccc(Cl)cc2)n1` gave a z-score of 0.0125.

On to `O=[N+]([O-])c1cc(S(=O)(=O)N2CCCCCC2)ccc1F`, for which the z-score was -0.161.

Regarding `Cc1ccc(C(C)C)c(OCC(=O)NN=C(CCl)CCl)c1`, the z-score was -0.363. On to `Nc1ccc(O)cc1C(=O)OCC(=O)c1ccc(C2CCCCC2)cc1`, for which the z-score was determined as 0.719. In turn, `COc1ccc(CCn2c(C)cc(C(=O)CCl)c2C)cc1OC` showed a z-score of 0.133. In the case of `CCOC(=O)CC1C(=O)NCCN1c1nc2ccc(C)cn2c(=O)c1/C=C1\SC(=S)N(CC(C)C)C1=O` (stereo unspecified) it was 0.287; in that of `N#C/C(=C/c1ccc(N2CCCCC2)o1)C(=O)Nc1ccc(Cl)cc1`, 0.33; in that of `O=C(Nc1ccccc1)C1=C(O)CC(c2ccoc2)CC1=Nc1ccccc1` (stereo unspecified), 0.661.

Regarding `N#CC1(C#N)C(c2ccccc2)OC23CCCCC2C1(C#N)C(=N)O3` (stereo unspecified), the z-score was -0.311.

`Cc1onc(-c2c(Cl)cccc2Cl)c1-c1nc2cc(Cl)ccc2c(=O)o1`: the z-score is -0.892.

With `CC1CCN(CCCNC(=O)c2ccc3c(Cl)c4c(nc3c2)CCCC4)CC1`, the z-score worked out at 0.829.
